Literature values as cited in patent publication US8206898B2, “RNA exit channel: target and method for inhibition of bacterial RNA polymerase” (priority 2003, dated 2012).
For at least one compound, name, drawing or mass did not settle the structure.

Tested on: bacterial RNAP
Conditions: literature; cited from earlier work

Compound: CO[C@H]1/C=C/O[C@@]2(C)Oc3c(C)c(O)c4c(O)c(c(/C=N/N5CCN(C)CC5)c(O)c4c3C2=O)NC(=O)/C(C)=C\C=C\[C@H](C)[C@H](O)[C@@H](C)[C@@H](O)[C@@H](C)[C@H](OC(C)=O)[C@@H]1C [Rifampicin, rifampicin]
- inhibition of bacterial RNAP: specifically inhibiting RNAP
